Results as given in patent US11242555B2, “Molecular sensors and uses thereof” (New York University, priority 2018, dated 2022).
At least one compound was matched to its structure with a doubt left.

System: double-stranded oligo probe (DNA)
Experiment: High-throughput screen of a compound library with the linear oligo probe (FRET ratio, 384 well plate)
Assay type: binding
Details: Cy5/Cy3 intensity, library peak ˜1.1, a small ratio indicates intercalation
Experimental: A library of compounds was mixed with the oligo probe in 384 well plate format. (A) The fluorescence spectra of the probe were recorded on a plate reader as in FIG. 21 and the FRET ratio (Cy5/Cy3 intensity) was calculated. […] (B) A library consisting of 1600 compounds from FDA and internationally approved drugs was screened to detect potential intercalators that can be drug repositioning targets.
The molecular sensors were used in vitro according to the following: 1) The sensors were diluted in a NaCl solution (e.g., in a 50-100 mM NaCl solution) and 0.2% BSA solution to a concentration of 1 μM. This can be adjusted depending on the sensitivity of the fluorescence measurement device. 2) The fluorescence spectrum was measured using a fluorescence spectrophotometer, a plate reader, or any other ad-hoc means. […] 3) The molecular species was added to be characterized for DNA binding properties or to be tested for intercalating or groove binding ability. The appropriate sensor is used (e.g., a linear or flexible molecular sensor). The fluorescence spectrum was measured again using the same methods and settings. 4) The FRET ratio was compared for both the sensor alone and sensor plus tested molecule. The FRET ratio is calculated by dividing the peak intensity of the acceptor fluorescence by that of the donor fluorescence.

## COc1c2c(cc3c1OCO3)CC[N+](C)=C2 [COTARNINE CHLORIDE]
  FRET ratio: 0.7278
